Measured values taken from publication PMC9457086.
No constants are given. Whether binding was seen depends on the method and setting. Binding seen in cells or lysates may run through a third protein. A yes stands for co-enrichment or nearness to the bait. Other partners may have been found. Sequences can lack the tags named with a protein.

By UniProt entry, the sequences of proteins in these tests, tags left out.
UniProt P35580: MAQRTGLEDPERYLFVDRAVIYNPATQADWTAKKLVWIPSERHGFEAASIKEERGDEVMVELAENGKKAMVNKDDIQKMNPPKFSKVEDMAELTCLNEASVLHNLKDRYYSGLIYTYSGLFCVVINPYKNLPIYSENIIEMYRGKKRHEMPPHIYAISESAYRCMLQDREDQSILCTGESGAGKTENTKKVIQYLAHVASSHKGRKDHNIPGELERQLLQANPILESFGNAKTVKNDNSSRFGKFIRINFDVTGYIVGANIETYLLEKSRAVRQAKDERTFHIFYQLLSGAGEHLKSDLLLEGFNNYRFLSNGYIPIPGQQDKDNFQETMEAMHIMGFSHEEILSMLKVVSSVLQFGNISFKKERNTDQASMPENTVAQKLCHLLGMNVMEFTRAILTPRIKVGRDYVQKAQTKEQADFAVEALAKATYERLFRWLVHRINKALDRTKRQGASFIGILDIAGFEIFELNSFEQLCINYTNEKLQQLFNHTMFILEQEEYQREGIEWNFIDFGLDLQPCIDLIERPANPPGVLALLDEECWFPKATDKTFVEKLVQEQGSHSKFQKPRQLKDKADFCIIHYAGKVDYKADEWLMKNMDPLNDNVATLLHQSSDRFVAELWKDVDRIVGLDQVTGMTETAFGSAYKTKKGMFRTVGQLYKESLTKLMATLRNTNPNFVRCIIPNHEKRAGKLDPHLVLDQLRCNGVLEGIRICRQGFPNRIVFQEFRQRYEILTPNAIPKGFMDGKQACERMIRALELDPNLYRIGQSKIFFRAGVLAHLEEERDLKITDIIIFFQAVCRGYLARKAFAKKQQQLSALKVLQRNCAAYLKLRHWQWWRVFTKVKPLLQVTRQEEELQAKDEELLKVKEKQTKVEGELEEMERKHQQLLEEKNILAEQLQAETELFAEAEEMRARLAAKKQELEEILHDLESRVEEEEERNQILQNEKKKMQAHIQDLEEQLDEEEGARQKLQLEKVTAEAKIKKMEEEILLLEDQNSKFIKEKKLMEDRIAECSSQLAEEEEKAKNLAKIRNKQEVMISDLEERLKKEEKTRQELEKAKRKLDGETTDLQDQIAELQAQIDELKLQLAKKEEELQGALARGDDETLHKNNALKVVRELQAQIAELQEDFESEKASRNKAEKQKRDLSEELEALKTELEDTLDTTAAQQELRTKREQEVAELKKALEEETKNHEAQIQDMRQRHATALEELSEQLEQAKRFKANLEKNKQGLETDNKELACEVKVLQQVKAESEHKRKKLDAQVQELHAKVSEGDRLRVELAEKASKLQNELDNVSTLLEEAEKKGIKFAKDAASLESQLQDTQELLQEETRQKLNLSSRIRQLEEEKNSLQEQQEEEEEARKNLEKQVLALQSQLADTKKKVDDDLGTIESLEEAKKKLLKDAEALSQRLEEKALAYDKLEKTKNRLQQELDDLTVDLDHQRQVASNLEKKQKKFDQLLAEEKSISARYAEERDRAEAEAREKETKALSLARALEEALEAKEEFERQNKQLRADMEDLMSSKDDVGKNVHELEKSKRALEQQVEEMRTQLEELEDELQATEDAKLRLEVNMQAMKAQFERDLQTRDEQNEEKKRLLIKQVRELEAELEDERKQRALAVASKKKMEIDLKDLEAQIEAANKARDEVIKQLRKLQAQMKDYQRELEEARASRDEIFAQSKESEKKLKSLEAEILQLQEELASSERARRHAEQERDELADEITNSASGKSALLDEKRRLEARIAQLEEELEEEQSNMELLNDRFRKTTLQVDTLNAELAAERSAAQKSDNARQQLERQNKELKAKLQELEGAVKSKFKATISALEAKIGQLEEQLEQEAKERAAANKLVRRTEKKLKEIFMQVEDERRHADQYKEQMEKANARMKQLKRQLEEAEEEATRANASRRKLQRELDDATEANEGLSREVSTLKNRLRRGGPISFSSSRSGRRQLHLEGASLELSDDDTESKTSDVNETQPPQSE
UniProt P11142: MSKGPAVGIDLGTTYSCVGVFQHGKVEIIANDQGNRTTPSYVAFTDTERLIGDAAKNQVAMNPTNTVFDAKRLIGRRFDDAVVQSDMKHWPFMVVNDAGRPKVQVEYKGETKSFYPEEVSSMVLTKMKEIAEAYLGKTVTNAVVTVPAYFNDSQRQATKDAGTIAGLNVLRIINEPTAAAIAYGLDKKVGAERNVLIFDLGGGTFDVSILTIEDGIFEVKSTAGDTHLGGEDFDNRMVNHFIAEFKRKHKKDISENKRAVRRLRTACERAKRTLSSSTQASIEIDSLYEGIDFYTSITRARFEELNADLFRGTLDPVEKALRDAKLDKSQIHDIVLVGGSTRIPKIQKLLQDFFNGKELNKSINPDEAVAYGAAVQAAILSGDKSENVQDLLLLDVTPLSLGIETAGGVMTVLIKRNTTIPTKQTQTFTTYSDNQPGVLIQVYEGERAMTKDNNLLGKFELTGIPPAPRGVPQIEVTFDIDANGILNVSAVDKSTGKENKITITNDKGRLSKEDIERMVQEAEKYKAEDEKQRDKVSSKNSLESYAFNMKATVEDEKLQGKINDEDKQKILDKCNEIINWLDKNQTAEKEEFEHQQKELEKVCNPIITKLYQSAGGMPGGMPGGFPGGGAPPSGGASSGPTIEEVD
UniProt P36873: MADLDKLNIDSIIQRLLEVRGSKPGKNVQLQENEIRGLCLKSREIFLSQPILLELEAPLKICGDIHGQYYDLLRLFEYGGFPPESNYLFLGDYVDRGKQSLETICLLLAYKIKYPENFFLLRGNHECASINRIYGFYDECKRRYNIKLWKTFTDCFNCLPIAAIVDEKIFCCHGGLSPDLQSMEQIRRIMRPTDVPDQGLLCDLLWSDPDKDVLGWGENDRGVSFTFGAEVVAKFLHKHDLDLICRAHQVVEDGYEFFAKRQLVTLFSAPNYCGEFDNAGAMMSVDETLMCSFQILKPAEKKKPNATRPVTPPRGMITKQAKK

Each substance was assayed against T1, phosphatase and actin regulator-1 (PHACTR1), overexpressed from adenovirus Ad-PHACTR1 (human) (UniProt Q9C0D0) (assay: affinity purification with mass spectrometry; HUVECs treated with control adenovirus or Ad-PHACTR1 24 h, then TNF-α 6 h; lysate in IP lysis buffer (150 mM NaCl, 0.5% Triton X-100, 0.5% NP-40, pH 7.5) on Anti-flag M2 affinity gel overnight at 4°C; 10 washes; gel slices to mass spectrometry).
T1 sequence: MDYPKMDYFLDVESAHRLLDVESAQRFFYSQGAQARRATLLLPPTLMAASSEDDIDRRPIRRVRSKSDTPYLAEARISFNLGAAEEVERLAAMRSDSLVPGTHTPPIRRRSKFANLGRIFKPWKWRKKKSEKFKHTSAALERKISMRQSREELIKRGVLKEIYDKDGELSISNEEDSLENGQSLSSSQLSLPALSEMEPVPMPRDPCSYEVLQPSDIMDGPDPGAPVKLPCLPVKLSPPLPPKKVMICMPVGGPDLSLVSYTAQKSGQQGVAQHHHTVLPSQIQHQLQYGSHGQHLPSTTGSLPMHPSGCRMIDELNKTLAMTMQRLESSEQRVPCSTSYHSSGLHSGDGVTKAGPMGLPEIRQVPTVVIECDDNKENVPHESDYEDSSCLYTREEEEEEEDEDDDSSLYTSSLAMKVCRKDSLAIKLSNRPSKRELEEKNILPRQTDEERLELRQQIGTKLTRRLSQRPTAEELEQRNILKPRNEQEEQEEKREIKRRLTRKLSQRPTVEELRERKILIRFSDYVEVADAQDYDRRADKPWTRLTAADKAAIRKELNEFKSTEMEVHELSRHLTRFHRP

Row | Substance | binding
1 | myosin heavy chain 10 (MYH10) (from UniProt P35580 1-1976) | binds
2 | heat shock protein family A member 8 (HSPA8) (from UniProt P11142 1-646) | binds
3 | protein phosphatase 1 catalytic subunit gamma (PPP1CC) (from UniProt P36873 1-323) | binds
